Laboratory results: PubChem BioAssay AID2685 (National Center for Advancing Translational Sciences (NCATS), 2010)
The list shows a part of the results. Shown are side measurements of this screen, not its main read-out; they come without a call. Compounds called inactive in the main read-out are mostly missing here. Potencies come from curve fits of mixed quality, noted in brackets.

Experiment: qHTS Assay for Lipid Storage Modulators in Drosophila S3 Cells;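 for cell number change: cells counted by Cell Tracker Red CMTPX staining in the red channel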
Details: BODIPY lipid droplet fluorescence, 18-24 h; for cell number change: measured here: cell count max response, cells fed with added oleic acid
Procedure, shortened: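 Drosophila S3 cells got compounds at several concentrations plus oleic acid (400 uM solution). Laser-scanning cytometry with 488 nm excitation read lipid droplets at 500-530 nm and cells at 575-640 nm. Percent activity was relative to 20 uM Triacsin C.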

[1] = measured here: lipid fluorescence (Fed channel) AC50, cells fed with added oleic acid
[2] = measured here: cell number channel AC50, cells fed with added oleic acid

| SMILES | cell number change [%] | AC50 [1] | AC50 [2] |
| --- | --- | --- | --- |
| O=C(CSc1nc2ccccc2c(=O)n1CC1CCCO1)NCc1ccccc1 (stereo not drawn) | -34.3 | 29.1 µM [falling, partial curve] |  |
| Cn1c(CCC(=O)O)nc2cc(S(=O)(=O)N3CCCCC3)ccc21 | -8.41 |  |  |
| O=C(COC(=O)c1ccc(Cl)c(S(=O)(=O)N2CCCCCC2)c1)Nc1ccccc1 | 1.63 | 29.1 µM [falling, single point] |  |
| CCOC(=O)c1ccccc1NC(=O)c1cccnc1 | -36.5 |  | 9.2 µM [falling, partial curve, poor fit] |
| COc1cccc(NC(=O)CN(C)CC(=O)c2c(C)[nH]c3ccccc23)c1 | 7.66 | 29.1 µM [falling, single point] |  |
| C=CCN(C(=O)c1csnn1)C(C(=O)NCc1ccccc1)c1cccs1 (stereo not drawn) | -32.4 | 6.51 µM [rising, single point] | 14.6 µM [falling, partial curve, poor fit] |
| CC1(C)Cc2c(cnn2-c2cccc(F)c2)C(NC(=O)CSc2ccncc2)C1 (stereo not drawn) | 29.1 | 29.1 µM [rising, partial curve, poor fit] |  |
| COC(=O)c1[nH]c2ccccc2c1NC(=O)CN1CC(C)OC(C)C1 (stereo not drawn) | -11.2 | 23.1 µM [rising, single point] |  |
| CCCCCN1C=CC=C/C1=C\C=C(C#N)C#N | 2.25 | 25.9 µM [falling, single point] |  |
| Cn1c(=O)c2c(nc(N3CCCC3)n2CC(O)CO)n(C)c1=O (stereo not drawn) | -15.2 | 25.9 µM [falling, partial curve] | 0.0517 µM [falling, full curve, poor fit] |
| CC1(C)C2CCC1(CS(=O)(=O)NC(CC(=O)O)c1cccc(Br)c1)C(=O)C2 (stereo not drawn) | 5.56 | 29.1 µM [rising, single point] |  |
| CCN1CCN(c2cc(C)c3cc(NC(=O)c4ccc(OC)c(OC)c4)ccc3n2)CC1 | -20.8 | 6.51 µM [rising, full curve] |  |
| CCCCNC(=O)COC(=O)c1ccc(SC)cc1OC | 95.1 |  |  |
| COC(=O)c1ccccc1OCC(=O)N1CCN(c2ccc(F)cc2)CC1 | 20.4 | 29.1 µM [rising, single point] |  |
| CCc1cc2c(SCc3nc4sc(C(C)=O)c(C)c4c(=O)[nH]3)ncnc2s1 | 31.2 | 1.84 µM [rising, partial curve, poor fit] | 0.00461 µM [rising, full curve, poor fit] |
| Cc1ccc(C)c(OCc2ccc(C(=O)N3N=C(C(F)F)CC3(O)C(F)F)o2)c1 (stereo not drawn) | -80.4 | 10.3 µM [falling, partial curve] | 20.6 µM [falling, partial curve] |
| Cc1ccc(S(=O)(=O)NCCC(=O)N2CCC(C)CC2)cc1 | 5.89 | 29.1 µM [falling, single point] |  |
| O=C(O)c1ccc(CN2C(=O)c3ccccc3S2(=O)=O)cc1 | -49.7 | 0.00461 µM [falling, full curve, poor fit] | 29.1 µM [falling, single point] |
| O=C(Nc1ccc(F)cc1)c1nc[nH]c1C(=O)Nc1ccccc1[N+](=O)[O-] | -10.3 | 0.00461 µM [falling, full curve, poor fit] |  |

| SMILES | cell number change [%] | AC50 [1] | AC50 [2] |
| --- | --- | --- | --- |
| COc1cccc(C2SCC(=O)N2c2cccc(C)c2)c1OC (stereo not drawn) | -3.01 | 9.2 µM [rising, partial curve] | 0.651 µM [falling, single point] |
| COc1cc(OC)cc(C(=O)NNC(=O)c2cc(S(=O)(=O)N3CCOCC3)ccc2F)c1 | -4.02 | 29.1 µM [rising, single point] |  |
| CCN(CC)CC(O)CN1c2ccccc2Sc2ccccc21 (stereo not drawn) |  |  | 6.51 µM [rising, single point] |
| C=CCNC(=O)C1CCC(=O)N1S(=O)(=O)c1ccc(C)cc1 (stereo not drawn) | 7.67 |  | 0.00411 µM [rising, full curve, poor fit] |
| CCn1c(CNC(=O)c2ccc(Cl)cc2)nnc1SCC(=O)N1CCOCC1 | 5.41 | 2.31 µM [falling, full curve] |  |
| O=C(NCC1CCN(c2ccc(S(=O)(=O)N3CCOCC3)cc2)CC1)Nc1ccccc1 | -10.5 | 35.5 µM [falling, single point] |  |
| COc1ccc(C)cc1Nc1nc(N)c2cc(OC)c(OC)cc2n1 | -13.9 | 6.51 µM [falling, single point] |  |
| COCc1cc(C)nc(SCc2ccccc2)c1C#N | -11.7 | 2.91 µM [rising, single point] |  |
| CCOc1cc(C(=O)Nc2cc(F)ccc2C)ccc1OCC(=O)N1CCOCC1 | -4.69 | 0.184 µM [falling, full curve, poor fit] |  |
| O=C1c2ccc(Cl)cc2S(=O)(=O)c2cccc(C(=O)N3CCN(c4ccc(Cl)cn4)CC3)c21 | -30.8 |  | 20.6 µM [falling, partial curve, poor fit] |
| COc1ccc(N2CCN(Cc3nc4scc(-c5cccs5)c4c(=O)[nH]3)CC2)cc1 | 54.4 | 29.1 µM [rising, partial curve, poor fit] |  |
| Cc1ccc(S(=O)(=O)Nc2ccc(-c3nc4ccc(C)cc4s3)cc2)cc1 | -46 | 23.1 µM [falling, single point] | 1.16 µM [falling, full curve, poor fit] |
| COc1cc2c(cc1OC)CN(C(=O)CCCN1C(=O)c3ccccc3C1=O)CC2 | -0.534 | 6.51 µM [rising, partial curve] | 0.00517 µM [falling, full curve, poor fit] |
| C=CCSc1nnc(NC(=O)c2nc(SCC)ncc2Cl)s1 |  | 0.731 µM [falling, single point] |  |
| Cc1cc(C(=O)NC2CCCc3c2cnn3-c2ccc(C(C)(C)C)cc2)nn1C (stereo not drawn) | -43.1 |  | 2.59 µM [falling, full curve] |
| COc1ccccc1Nc1cc(N2CCOCC2)c2nonc2c1[N+](=O)[O-] | 0.791 |  |  |
| CCOc1ccc(NC(=S)N(CCc2c(C)[nH]c3ccc(C)cc23)Cc2cccnc2)cc1 | 5.83 | 0.58 µM [rising, full curve] |  |
| CC1(C)CC(=O)C2=C(C1)N(CC1CCCO1)C(=O)C2(O)C(F)(F)F (stereo not drawn) | -35.9 | 29.1 µM [falling, single point] | 1.84 µM [falling, full curve, poor fit] |
| O=C(c1ccccc1C(=O)N1CCN(c2ccc(F)cc2)CC1)N1CCN(c2ccc(F)cc2)CC1 |  | 1.64 µM [falling, partial curve] |  |

Already shown: entries from further up.

| SMILES | cell number change [%] | AC50 [1] | AC50 [2] |
| --- | --- | --- | --- |
| O=C(NCC1CCN(c2ccc(S(=O)(=O)N3CCOCC3)cc2)CC1)Nc1ccccc1 | -10.5 | 35.5 µM [falling, single point] |  |
| COc1ccc(C)cc1Nc1nc(N)c2cc(OC)c(OC)cc2n1 | -13.9 | 6.51 µM [falling, single point] |  |

Remaining list, next part.

| SMILES | cell number change [%] | AC50 [1] | AC50 [2] |
| --- | --- | --- | --- |
| Cc1ccc(S(=O)(=O)N2CCCC2)cc1C(=O)NCc1ccccn1 | 16.7 | 8.2 µM [falling, partial curve, poor fit] |  |
| CN(c1ncc(C(F)(F)F)cc1Cl)n1cc(C(N)=O)c2ccccc2c1=O |  | 1.16 µM [rising, full curve] |  |
| C=CCNC(=O)Cc1c(OC)ccc2cc(Br)ccc12 | 26.8 |  |  |
| CNc1ccccc1C(C)(C)c1cc(-c2ccco2)n[nH]1 | -33 | 23.1 µM [falling, single point] | 20.6 µM [falling, single point] |
| CCOC(=O)Cn1c(=O)sc2ccccc21 | 3.67 |  |  |
| C=C(C)COc1ccc(-c2nc(N)ncc2-c2ccccc2OC)c(O)c1 | -27.1 | 32.6 µM [falling, single point] |  |
| CCOC(=O)c1c([N+](=O)[O-])c(C)[nH]c(=O)c1C#N | -44.6 | 29.1 µM [falling, single point] | 29.1 µM [falling, single point] |
| CC(C)Cn1c(SC(C)C(=O)NCC2CCCO2)nc2ccc(Cl)cc2c1=O (stereo not drawn) | 4.23 | 3.66 µM [falling, single point] |  |
| CCN1CCN(S(=O)(=O)c2ccc(Cl)c(C(=O)Nc3nnc(C)s3)c2)CC1 | -9.64 |  |  |
| CN=C1SC(CC(=O)Nc2cccc(Cl)c2Cl)C(=O)N1C (stereo not drawn) | 2.93 |  |  |
| CCOc1ccccc1N(CC(=O)Nc1ccc(OC)c(OC)c1)S(=O)(=O)c1ccccc1 | -26.5 | 29.1 µM [falling, single point] |  |
| COc1ccc(N2CCN(C(=O)Nc3ccc(S(=O)(=O)N(C)C)cc3)CC2)cc1 | 42.8 | 18.4 µM [rising, partial curve] | 16.4 µM [rising, single point] |
| Cc1ccc(-c2n[nH]c(=O)c3ccccc23)cc1S(=O)(=O)NCC1CCCO1 (stereo not drawn) | 21.8 | 6.51 µM [falling, single point] |  |
| COc1ccc(Cl)cc1C(=O)NNC(=O)CSc1nnnn1C |  | 0.116 µM [rising, partial curve, poor fit] | 0.146 µM [rising, partial curve, poor fit] |
| COc1cc(C(C(=O)NC2CCCC2)N(C(=O)c2snc(C(N)=O)c2N)c2ccccc2)cc(OC)c1OC (stereo not drawn) | -35.5 |  | 0.651 µM [falling, partial curve, poor fit] |
| CCOC(=O)c1cc(-c2ccc(C)cc2)n(CC(=O)NCc2ccco2)c1C |  | 2.91 µM [rising, single point] |  |
| Cc1nc(-c2ccc(Cl)cc2)sc1C1(C)CC(c2ccc(C#N)cc2)=NO1 (stereo not drawn) | 13.3 | 5.17 µM [rising, full curve, poor fit] |  |
| Cc1cc(Br)cc(/C=N/NC(=O)c2ccc3c(c2)OCO3)c1O | -11.3 |  |  |
| CCOc1ccc(CSC(CC(=O)O)C(=O)O)cc1 (stereo not drawn) | 37.8 |  | 14.6 µM [rising, single point] |

Arranged by number of heavy atoms (ascending): part of the list above.

| SMILES | cell number change [%] | AC50 [1] | AC50 [2] |
| --- | --- | --- | --- |
| CCOC(=O)Cn1c(=O)sc2ccccc21 | 3.67 |  |  |
| COc1ccc(C)cc1Nc1nc(N)c2cc(OC)c(OC)cc2n1 | -13.9 | 6.51 µM [falling, single point] |  |
| COc1ccc(N2CCN(Cc3nc4scc(-c5cccs5)c4c(=O)[nH]3)CC2)cc1 | 54.4 | 29.1 µM [rising, partial curve, poor fit] |  |
